The supplement of paper PMC7877785
± gives the uncertainty stated by the source. Many entries were measured with a wide error.

Experiment: self-splicing fitness, log relative to wild type (ln ratio); higher = more splicing; Tetrahymena group I intron in knt gene, E. coli kanamycin selection, DiMSum; sequences stand for … in CUCUCU…GGAGGGAAAAGUUAUCAGGCAUGCACCUGGUAGCUAGUCUUUAAACCAAUAGAUUGCAUCGGUUUAAAAGGCAAGACCGUCAAAUUGCGGGAAAGGGGUCAACAGCCGUUCAGUACCAAGUCUCAGGGGAAACUUUGAGAUGGCCUUGCAAAGGGUAUGGUAAUAAGCUGACGGACAUGGUCCUAACCACGCAGCCAAGUCCUAAGUCAACAGAUCUUCUGUUGAUAUGGAUGCAGUUCACAGACUAAAUGUCGGUCGGGGAAGAUGUAUUCUUCUCAUAAGAUAUAGUCGGACCUCUCCUUAAUGGGAGCUAGCGGAUGAAGUGAUGCAACACUGGAGCCGCUGGGAACUAAUUUGUAUGCGAAAGUAUAUUGAUUAGUUUUGGAGUACUCGUGGUCG
Method in brief: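 Six replicate transformations of E. coli BL21(DE3) with a pET-22b(+) library were grown overnight at 37°C or 30°C. The library randomised all eight P1ex-region intron nucleotides, the intron lying in the knt kanamycin-resistance gene, and plates were LB agar with or without 25 μg/mL kanamycin plus 100 μg/mL carbenicillin, 50 μM IPTG and 0.2% rhamnose. Pooled colonies were amplicon-sequenced on an Illumina HiSeq 2500, and fitness is the DiMSum error-weighted combination of wild-type-normalised replicate fold changes, kanamycin versus none.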

Which “self-splicing fitness (ln)” value (30 °C) does the source give for UCCUAGCAAUAUUACGCCUC here?
Its value is -2.62 ± 0.27.

What about the “self-splicing fitness (ln)” value (37 °C) of the same sequence?
Its value is -2.29 ± 0.39.

For CCGCAGCAAUAUUACGAGAC, which “self-splicing fitness (ln)” value (37 °C) is on record?
The value was -1.89 ± 0.51.

Which results are given for GAAUAGCAAUAUUACGAAGG?
self-splicing fitness (ln) (30 °C): -2.77 ± 0.27; self-splicing fitness (ln) (37 °C): -3.62 ± 0.73

Which “self-splicing fitness (ln)” value (30 °C) does the source give for UCUGAGCAAUAUUACGCAUC here?
Its value is -1.67 ± 0.6.

Which “self-splicing fitness (ln)” value (30 °C) does the source give for UAGGAGCAAUAUUACGGCAA here?
Its value is -2.2 ± 0.53.

With UGGAAGCAAUAUUACGAUUC as the sequence, how does the “self-splicing fitness (ln)” value (37 °C) read?
Its value is -3.41 ± 0.73.

With UCGUAGCAAUAUUACGGGCC as the sequence, how does the “self-splicing fitness (ln)” value (30 °C) read?
Its value is -3.8 ± 0.77.

With CCUUAGCAAUAUUACGAGCC as the sequence, how does the “self-splicing fitness (ln)” value (37 °C) read?
The value was -1.62 ± 1.1.

Which “self-splicing fitness (ln)” value (30 °C) does the source give for GGCGAGCAAUAUUACGCGGG here?
The value was -3.87 ± 0.54.

Which “self-splicing fitness (ln)” value (37 °C) does the source give for UCAGAGCAAUAUUACGAACU here?
Its value is -3.64 ± 0.59.

For GCCUAGCAAUAUUACGGGGC, which “self-splicing fitness (ln)” value (30 °C) is on record?
Its value is -4.15 ± 0.59.

With UAGGAGCAAUAUUACGGGGA as the sequence, how does the “self-splicing fitness (ln)” value (30 °C) read?
Its value is -4.18 ± 0.74.

And the “self-splicing fitness (ln)” value (37 °C)?
The value was -0.969 ± 0.77.

For GUAGAGCAAUAUUACGGUGG, which “self-splicing fitness (ln)” value (30 °C) is on record?
Its value is -3.39 ± 0.45.

And the “self-splicing fitness (ln)” value (37 °C)?
Its value is -0.894 ± 0.23.

For GUAUAGCAAUAUUACGUUAC, which “self-splicing fitness (ln)” value (37 °C) is on record?
Its value is -2.28 ± 0.65.

With UUGAAGCAAUAUUACGAUCC as the sequence, how does the “self-splicing fitness (ln)” value (30 °C) read?
The value was -2.97 ± 0.77.

For GAGAAGCAAUAUUACGGGUC, which “self-splicing fitness (ln)” value (30 °C) is on record?
Its value is -3.08 ± 0.15.

What about the “self-splicing fitness (ln)” value (37 °C) of the same sequence?
The value was -2.24 ± 0.16.

With CGCGAGCAAUAUUACGUCCC as the sequence, how does the “self-splicing fitness (ln)” value (37 °C) read?
Its value is -2.47 ± 1.1.

With UGGAAGCAAUAUUACGUAAG as the sequence, how does the “self-splicing fitness (ln)” value (30 °C) read?
Its value is -1.07 ± 0.12.

And the “self-splicing fitness (ln)” value (37 °C)?
Its value is -0.81 ± 0.13.

Which “self-splicing fitness (ln)” value (30 °C) does the source give for GCGUAGCAAUAUUACGACCC here?
Its value is -1.55 ± 1.2.

What about the “self-splicing fitness (ln)” value (37 °C) of the same sequence?
The value was 1.3 ± 1.1.

With UCGGAGCAAUAUUACGUGGA as the sequence, how does the “self-splicing fitness (ln)” value (30 °C) read?
Its value is -1.28 ± 0.2.

What about the “self-splicing fitness (ln)” value (37 °C) of the same sequence?
The value was -1.48 ± 0.18.

For GACGAGCAAUAUUACGAGGU, which “self-splicing fitness (ln)” value (30 °C) is on record?
Its value is -3.81 ± 0.28.

And the “self-splicing fitness (ln)” value (37 °C)?
Its value is -2.38 ± 0.27.

For UGAGAGCAAUAUUACGCCCU, which “self-splicing fitness (ln)” value (37 °C) is on record?
Its value is -0.899 ± 0.67.

With UGUUAGCAAUAUUACGCACC as the sequence, how does the “self-splicing fitness (ln)” value (30 °C) read?
The value was -3.07 ± 0.79.

And the “self-splicing fitness (ln)” value (37 °C)?
The value was 0.254 ± 1.2.

Which “self-splicing fitness (ln)” value (30 °C) does the source give for GUUUAGCAAUAUUACGAGUC here?
The value was -3.71 ± 0.6.

For UGGGAGCAAUAUUACGAUUU, which “self-splicing fitness (ln)” value (37 °C) is on record?
Its value is -3.49 ± 0.6.

With UUGGAGCAAUAUUACGGGUA as the sequence, how does the “self-splicing fitness (ln)” value (30 °C) read?
The value was -4.37 ± 1.

With CGUGAGCAAUAUUACGCCCA as the sequence, how does the “self-splicing fitness (ln)” value (30 °C) read?
The value was -3.49 ± 0.54.

For GAGAAGCAAUAUUACGCCAC, which “self-splicing fitness (ln)” value (30 °C) is on record?
Its value is -3.42 ± 0.61.

Which results are given for AUUGAGCAAUAUUACGCCGA?
self-splicing fitness (ln) (30 °C): -3.96 ± 0.6; self-splicing fitness (ln) (37 °C): -1.79 ± 1.2

Which “self-splicing fitness (ln)” value (30 °C) does the source give for UCGGAGCAAUAUUACGUGCU here?
Its value is -4.16 ± 0.72.

With UACCAGCAAUAUUACGUUGG as the sequence, how does the “self-splicing fitness (ln)” value (30 °C) read?
The value was -3.21 ± 0.12.

And the “self-splicing fitness (ln)” value (37 °C)?
Its value is -2.85 ± 0.14.

What does the source list for GGAUAGCAAUAUUACGCCAU?
self-splicing fitness (ln) (30 °C): -2.07 ± 0.61; self-splicing fitness (ln) (37 °C): -1.41 ± 0.52

Which results are given for UCGAAGCAAUAUUACGCGAU?
self-splicing fitness (ln) (30 °C): -3.31 ± 0.32; self-splicing fitness (ln) (37 °C): -3.23 ± 0.73

Which “self-splicing fitness (ln)” value (30 °C) does the source give for ACGGAGCAAUAUUACGGAGA here?
The value was -1.4 ± 1.2.

For AAGCAGCAAUAUUACGUUAA, which “self-splicing fitness (ln)” value (30 °C) is on record?
The value was -1.76 ± 0.12.

And the “self-splicing fitness (ln)” value (37 °C)?
Its value is -2.14 ± 0.14.

For GGGAAGCAAUAUUACGUUGU, which “self-splicing fitness (ln)” value (30 °C) is on record?
Its value is -3.23 ± 0.22.

What about the “self-splicing fitness (ln)” value (37 °C) of the same sequence?
Its value is -2.31 ± 0.29.

For UUGGAGCAAUAUUACGAAGG, which “self-splicing fitness (ln)” value (30 °C) is on record?
Its value is -1.12 ± 0.54.

And the “self-splicing fitness (ln)” value (37 °C)?
The value was -1.7 ± 0.66.

For CCGUAGCAAUAUUACGAACC, which “self-splicing fitness (ln)” value (30 °C) is on record?
The value was -3.46 ± 0.52.

For AGGCAGCAAUAUUACGCUGC, which “self-splicing fitness (ln)” value (30 °C) is on record?
The value was -2.5 ± 0.63.

For ACUGAGCAAUAUUACGAAGC, which “self-splicing fitness (ln)” value (30 °C) is on record?
Its value is -3.3 ± 0.66.

With GGCGAGCAAUAUUACGGAUA as the sequence, how does the “self-splicing fitness (ln)” value (30 °C) read?
The value was -3.69 ± 0.52.

With GCGUAGCAAUAUUACGGCCA as the sequence, how does the “self-splicing fitness (ln)” value (30 °C) read?
Its value is -2.1 ± 0.65.

With ACUUAGCAAUAUUACGCUGG as the sequence, how does the “self-splicing fitness (ln)” value (30 °C) read?
Its value is -1.25 ± 0.54.

And the “self-splicing fitness (ln)” value (37 °C)?
Its value is -1.14 ± 0.65.

Which “self-splicing fitness (ln)” value (37 °C) does the source give for GUUGAGCAAUAUUACGUCCC here?
Its value is -0.693 ± 1.4.

With UACCAGCAAUAUUACGCGCC as the sequence, how does the “self-splicing fitness (ln)” value (30 °C) read?
The value was -1.46 ± 0.12.

What about the “self-splicing fitness (ln)” value (37 °C) of the same sequence?
The value was -1.1 ± 0.2.

Which “self-splicing fitness (ln)” value (37 °C) does the source give for UCCAAGCAAUAUUACGAACC here?
Its value is -2.39 ± 1.1.

For GGUGAGCAAUAUUACGAUUA, which “self-splicing fitness (ln)” value (30 °C) is on record?
The value was -0.962 ± 0.83.

Which “self-splicing fitness (ln)” value (30 °C) does the source give for ACGGAGCAAUAUUACGGAUC here?
The value was -3.09 ± 0.17.

And the “self-splicing fitness (ln)” value (37 °C)?
The value was -2.79 ± 0.26.

For GUGUAGCAAUAUUACGGCAG, which “self-splicing fitness (ln)” value (30 °C) is on record?
Its value is -2.39 ± 0.57.

For AUGUAGCAAUAUUACGAUCU, which “self-splicing fitness (ln)” value (30 °C) is on record?
The value was -0.222 ± 0.056.

What about the “self-splicing fitness (ln)” value (37 °C) of the same sequence?
Its value is 0.524 ± 0.073.

For UUUGAGCAAUAUUACGAACG, which “self-splicing fitness (ln)” value (30 °C) is on record?
Its value is -2.81 ± 0.76.

With CGGGAGCAAUAUUACGAACG as the sequence, how does the “self-splicing fitness (ln)” value (30 °C) read?
Its value is -4.35 ± 0.24.

And the “self-splicing fitness (ln)” value (37 °C)?
The value was -3 ± 0.23.

What does the source list for GGUCAGCAAUAUUACGCCAC?
self-splicing fitness (ln) (30 °C): -1.55 ± 0.71; self-splicing fitness (ln) (37 °C): -2.87 ± 0.75

Which results are given for CUGCAGCAAUAUUACGGCUC?
self-splicing fitness (ln) (30 °C): -2.57 ± 0.22; self-splicing fitness (ln) (37 °C): -2.96 ± 0.43

For CGCGAGCAAUAUUACGCUGC, which “self-splicing fitness (ln)” value (37 °C) is on record?
The value was -3.8 ± 0.59.

For CUGCAGCAAUAUUACGAGCC, which “self-splicing fitness (ln)” value (37 °C) is on record?
The value was -3.68 ± 1.

Which “self-splicing fitness (ln)” value (30 °C) does the source give for GGGGAGCAAUAUUACGUCGC here?
The value was -1.96 ± 1.2.

Which “self-splicing fitness (ln)” value (30 °C) does the source give for UAGUAGCAAUAUUACGAAAG here?
Its value is -3.93 ± 0.52.

For CCUUAGCAAUAUUACGUCGA, which “self-splicing fitness (ln)” value (30 °C) is on record?
Its value is -3.44 ± 0.52.

With UUUUAGCAAUAUUACGUUGU as the sequence, how does the “self-splicing fitness (ln)” value (30 °C) read?
Its value is -2.65 ± 0.18.

And the “self-splicing fitness (ln)” value (37 °C)?
The value was -2.13 ± 0.24.
